From patent publication US20210139964, “RNA TAGGING SYSTEM FOR VISUALIZATION OF SINGLE MRNA MOLECULES” (ALBERT EINSTEIN COLLEGE OF MEDICINE, published 2021)
A weaker result is weaker than the reference pair of the same experiment. Where a protein sequence is shown, tags need not be part of it.

Target: T1, MS2 coat protein (MCP) (Enterobacteria phage MS2) (UniProt P03612)
T1 sequence (looked up, limits assumed): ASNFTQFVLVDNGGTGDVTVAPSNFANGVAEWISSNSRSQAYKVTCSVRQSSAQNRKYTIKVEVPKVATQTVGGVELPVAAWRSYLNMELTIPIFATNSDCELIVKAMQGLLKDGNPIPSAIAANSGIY
Experiment: EMSA
Conditions: nanomolar range, about 10-fold weaker than C-variant, purified recombinant protein, label: 5' fluorescein

Row | Sequence | binding result | binding result (100 mM NaCl, room temperature)
1 | CGCAGAGGAAUACCCUGCG [V6/V7 SL_9 wt (Loop2 U)] | binds more weakly | 
2 | GACGCAGGACUACCGCGUC [V6/V7 SL_1 wt (Loop1 U)] | binds more weakly | 
3 | ACAUGAGGAUUACCCAUGU [MS2 wt stem loop (U at -5)] |  | binds more weakly
